Experimental data reported in patent publication US20260216150A1, “VDAC MODULATORS FOR BLISTERING SKIN CONDITIONS” (THE MEDICAL RESEARCH, INFRASTRUCTURE, AND HEALTH SERVICES …, priority 2023, published 2026).
At least one structure is not confirmed: it was looked up by name or label, or the drawing left a doubt.

Test system: primary human epidermal keratinocytes
Assay: Dispase-based keratinocyte Dissociation Assay (DDA), AK23-induced acantholysis
Type: cell-based
Settings: AK23-exposed cells, DMSO/ABT-199 versus AK23/DMSO

Structure (SMILES): CC1(C)CCC(CN2CCN(c3ccc(C(=O)NS(=O)(=O)c4ccc(NCC5CCOCC5)c([N+](=O)[O-])c4)c(Oc4cnc5[nH]ccc5c4)c3)CC2)=C(c2ccc(Cl)cc2)C1 [Venetoclax (ABT-199), Venetoclax]
- acantholysis caused by Bcl-2 inhibitor: increased the degree of acantholysis
- acantholysis caused by Bcl-2 inhibitor (listed as ABT-199): increased acantholysis
